The assay is described as follows: qHTS Assay to Find Inhibitors of Chronic Active B-Cell Receptor Signaling. Conditions: ABC-DLBCL IkBa-CBG/CBR reporter, luminescence ratio (green luciferase fused to IkBa over red control in TMD8 lymphoma cells), 4 h. Summed up:
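Concentration-response series (up to 46 uM) were applied to TMD8 dual-reporter cells for 4 h at 37C with doxycycline. Green/red ratio, after filter-overlap correction, defined %Activity; red signal alone was normalised to basal cells and zero luminescence.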
In general terms: qHTS replaces the single test concentration by a dilution series.

[1] abbreviates: measured here: CBR red luminescence, cell number.

This is one part of the list. These are further read-outs of the screen, such as a control signal, another cell line or another target. No call is given for them. The list favours compounds with an active or inconclusive main result. Potencies come from curve fits of mixed quality, noted in brackets.

Take `O=[N+]([O-])c1ccc(Nc2c3ccccc3nc3ccccc23)cc1`: under setting [1], the half-maximal activity concentration (AC50) is 25.1 µM [falling, single point].

Consider `COc1ccc(OC)c(N/C(C)=C/C(=O)c2ccccc2)c1`, for which, under setting [1], the concentration at half-maximal activity (AC50) is 20.6 µM [rising, partial curve].

As to `COc1ccc(N2C(=O)C(Cc3ccccc3)NC2=S)cc1` (stereo not drawn), the AC50 under setting [1] is 0.708 µM [rising, full curve, poor fit].

`Cc1ccc(NC(=O)CN(C)C(=O)Cn2cc(C(F)(F)F)cc(Cl)c2=O)cc1`: the AC50 under setting [1] is 25.9 µM [rising, partial curve, poor fit].

For the compound `COc1ccc(CNC(=S)Nc2ccc(Br)cc2)cc1`, the AC50 under setting [1] was 11.2 µM [falling, partial curve, poor fit].

As to `O=C(Nc1nnc(C(F)(F)F)s1)C1COc2ccccc2O1` (stereo not drawn), the AC50 under setting [1] was 2.06 µM [falling, full curve, poor fit].

For `CCOc1ccccc1Nc1nc(-c2sc(NC(=O)c3ccc([N+](=O)[O-])cc3)nc2C)cs1`, under setting [1], the AC50 was 11.2 µM [falling, partial curve].

As for `C=C1c2ccccc2NC(=O)N1c1ccc(OC)cc1`, under setting [1], the AC50 was 22.4 µM [falling, partial curve].

Regarding `N/C(=N\OC(=O)CC1CCCCC1)c1cccc(Br)c1`, under setting [1], the concentration at half-maximal activity (AC50) was 5.62 µM [rising, partial curve, poor fit].

With `O=C(CCCC(=O)OCC(=O)c1cccs1)Nc1ccc(Oc2ccccc2)cc1`, the half-maximal activity concentration (AC50) under setting [1] is 0.126 µM [falling, full curve, poor fit].

For the compound `CON(C)c1nc(OCCNC(=O)COc2ccc(Cl)cc2C)nc(N(C)C)n1`, the AC50 under setting [1] was 5.62 µM [rising, single point].

For `O=C(CNc1cccc2ccccc12)N/N=C/c1ccc([N+](=O)[O-])cc1`, under setting [1], the AC50 is 0.461 µM [falling, full curve, poor fit].

On to `c1ccc(-c2sc3ccccc3c2-c2ccc(OCCN3CCCC3)cc2)cc1`, for which the half-maximal activity concentration (AC50) under setting [1] is 1.64 µM [falling, partial curve].

For the compound `CCCCCC[N+](C)(C)CCSSCC[N+](C)(C)CCCCCC`, the AC50 under setting [1] is 14.1 µM [rising, single point].

As to `CCS(=O)(=O)c1ccc2oc(Nc3cccc(OC)c3)nc2c1`, the AC50 under setting [1] is 35.5 µM [falling, single point].

As for `CC1CCCN(C(C(=O)NC2CCCCC2)c2cc3c(cc2[N+](=O)[O-])OCO3)C1` (stereo not drawn), the AC50 under setting [1] is 7.31 µM [falling, partial curve, poor fit].

For `O=C1c2cccc(OCC(=O)N3N=C(c4cccs4)CC3c3ccc(F)cc3)c2CCN1Cc1ccccc1` (stereo not drawn), the AC50 is, setting by setting: under setting [1], 29.1 µM [rising, single point]; (measured here: IkBa-CBG green luminescence) 23.1 µM [falling, partial curve, poor fit].

A word on the AC50: it is the concentration at which the activity in the assay is half-maximal.

For the origin of these results see PubChem BioAssay AID493014 (National Center for Advancing Translational Sciences (NCATS), 2011).
